From patent publication US20070276025A1, “Indirubin-Type Compounds, Compositions, and Methods for Their Use” (priority 2003, published 2007) come the findings set out here.

For the first data set, the system named is GSK-3α/β. The experiment in a line: GSK-3α/β kinase assay (GS-1 peptide, 15 μM ATP). In kind it is biochemical, porcine.
Settings: not given
`O=C1Nc2ccc(F)cc2C1=C1Nc2ccccc2C1=O` [5-Fluoroindirubin, reference compound]: the ΔGexp is -7.156 kcal/mol.

Staying with this data set, now noted: Table 7; […], GSK-3.
The compound `Cc1cc2c(cc1Br)NC(=O)C2=C1Nc2ccccc2C1=O` [5f, 6-Bromo-5-methylindirubin] had a ΔGexp of -8.290 kcal/mol.

Take `CC(=O)ON=C1C(=C2C(=O)Nc3cc(Br)ccc32)Nc2ccccc21` [8a, 6-Bromoindirubin-3′-acetoxime]: the ΔGexp is -9.210 kcal/mol.

In the case of `CC(=O)O/N=C1/C(=C2/C(=O)Nc3cc(Cl)ccc32)Nc2ccccc21` [8d, 6-Chloroindirubin-3′-acetoxime], the ΔGexp is -8.680 kcal/mol.

In turn, `O=C1Nc2ccc([N+](=O)[O-])cc2C1=C1Nc2ccccc2C1=O` [5-Nitroindirubin, reference compound] came in with a ΔGexp of -7.775 kcal/mol.

The compound `O=C1Nc2cc(Cl)c(Cl)cc2/C1=C1/Nc2ccccc2C1=O` [5e, 5,6-Dichloroindirubin] showed a ΔGexp of -8.110 kcal/mol.

For `CC(=O)ON=C1C(=C2C(=O)Nc3cc(Br)c(C)cc32)Nc2ccccc21` [8f, 6-Bromo-5-methylindirubin-3′-acetoxime], the ΔGexp is -9.570 kcal/mol.

The compound `O=C1Nc2cc(Br)c([N+](=O)[O-])cc2C1=C1Nc2ccccc2C1=O` [5g, 6-Bromo-5-nitroindirubin] showed a ΔGexp of -6.900 kcal/mol.

Turning to 6-Chloroindirubin [5d], the ΔGexp was -6.571 kcal/mol.

As for `O=C1Nc2cc(Br)ccc2/C1=C1/Nc2cc(Br)ccc2C1=O` [12b, 6,6′-Dibromoindirubin], the ΔGexp was -3.101 kcal/mol.

With `O=C1Nc2cc(Br)ccc2C1=C1Nc2cc(Br)ccc2C1=NO` [13b, 6,6′-dibromo-indirubin-3′-oxime], the ΔGexp was -6.725 kcal/mol.

As to `O=C1Nc2cc(Cl)ccc2C1=C1Nc2ccccc2C1=NO` [7d, 6-Chloroindirubin-3′-oxime], the ΔGexp is -8.517 kcal/mol.

For the compound `O=C1Nc2ccccc2/C1=C1/Nc2cc(Br)ccc2C1=O` [12a, 6′-Bromoindirubin], the ΔGexp was -1.514 kcal/mol.

In the case of `Cc1ccc2c(c1)/C(=C1/Nc3ccccc3C1=O)C(=O)N2` [compound 15, 5-methyl-indirubin, reference compound], the ΔGexp was -7.386 kcal/mol.

For the compound `O=C1Nc2ccc(Br)cc2/C1=C1/Nc2ccccc2C1=O` [compound 16, 5-bromo-indirubin, reference compound], the ΔGexp is -7.505 kcal/mol.

For `CC(=O)ON=C1C(=C2C(=O)Nc3cc(Cl)c(Cl)cc32)Nc2ccccc21` [8e, 5,6Dichloroindirubin-3′-acetoxime], the ΔGexp is -10.130 kcal/mol.

Compound `O=C1Nc2ccccc2/C1=C1/Nc2ccc(Br)cc2C1=O` [compound 20, 5′-bromo-indirubin, reference compound] displayed a ΔGexp of -5.655 kcal/mol.

Consider `O=C1Nc2ccc(Cl)cc2/C1=C1/Nc2ccccc2C1=O` [compound 17, 5-chloro-indirubin, reference compound], for which the ΔGexp is -7.601 kcal/mol.

On to `CC(=O)ON=C1C(=C2C(=O)Nc3cc(Br)c([N+](=O)[O-])cc32)Nc2ccccc21` [8g, 6-Bromo-5-nitroindirubin-3′-acetoxime], for which the ΔGexp is -9.720 kcal/mol.

The compound `CON=C1C(=C2C(=O)Nc3cc(Br)ccc32)Nc2ccccc21` [9a, 6-Bromoindirubin-3′-methoxime] yielded a ΔGexp of -8.112 kcal/mol.

Compound `O=C1Nc2cc(I)ccc2/C1=C1/Nc2ccccc2C1=O` [5c, 6-Iodoindirubin] displayed a ΔGexp of -7.506 kcal/mol.

Consider `O=C1Nc2cc(F)ccc2C1=C1Nc2ccccc2C1=NO` [7b, 6-Fluoroindirubin-3′-oxime], for which the ΔGexp is -6.640 kcal/mol.

`O=C1Nc2ccc(Br)cc2/C1=C1/Nc2ccc(Br)cc2C1=O` [compound 21, 5,5′-dibromo-indirubin, reference compound] returned a ΔGexp of -5.991 kcal/mol.
